Measurements taken from PubChem BioAssay AID493014 (National Center for Advancing Translational Sciences (NCATS), 2011).
The other results are listed elsewhere or left out. The main result of the screen is listed elsewhere. These columns were measured beside it and carry no call. Most of these compounds were active or inconclusive in the main read-out, so they are no random draw. Potencies come from curve fits of mixed quality, noted in brackets.

Assay: qHTS Assay to Find Inhibitors of Chronic Active B-Cell Receptor Signaling
Details: ABC-DLBCL IkBa-CBG/CBR reporter, luminescence ratio (green luciferase fused to IkBa over red control in TMD8 lymphoma cells), 4 h
Outline: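 TMD8 ABC-DLBCL cells carrying doxycycline-inducible green luciferase fused to IkappaBalpha plus unfused red luciferase were exposed to compounds (up to 46 uM) for 4 hrs at 37C. Activity came from the overlap-corrected green/red luminescence ratio.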

[1] = measured here: CBR red luminescence, cell number
[2] = measured here: IkBa-CBG green luminescence

## Cc1cc(C(F)(F)F)nn1Cc1ccc(C(=O)NCc2ccco2)o1
[1]
  AC50: 16.4 µM [falling, partial curve]
[2]
  AC50: 23.1 µM [rising, partial curve, poor fit]

## CC(=O)Nc1ccccc1NC(=O)CN(C)S(=O)(=O)c1ccc(C)cc1
[1]
  AC50: 6.51 µM [falling, single point]

## CC(C)n1cc(/C=C2\NC(=O)N(c3cccc(Cl)c3)C2=O)c2ccccc21
[1]
  AC50: 0.517 µM [falling, full curve, poor fit]

## Cc1nc2ccccn2c1C(=O)CSc1cccc(Cl)c1
[1]
  AC50: 35.5 µM [falling, single point]

## O=C(Nc1ccc(SC(F)(F)F)cc1)c1ccccn1
[1]
  AC50: 12.6 µM [falling, partial curve]

## Cn1cc(/C=C/C(=O)c2ccccc2)c2ccccc21
[1]
  AC50: 1.26 µM [falling, full curve]

## COc1ccc2nc3sc(C(=O)N4CCN(C)CC4)cc3cc2c1
[1]
  AC50: 0.13 µM [falling, full curve, poor fit]

## CCOC(=O)c1ccc(NC(=S)N2CCCC(C(=O)OCC)C2)cc1 (stereo not given)
[1]
  AC50: 12.6 µM [falling, single point]

## COc1cccc(CN(C)C(=O)CCN(c2ccccc2)S(=O)(=O)c2ccc(C)cc2)c1OC
[1]
  AC50: 2.31 µM [rising, partial curve, poor fit]

## Nc1ccc(Cc2nc3c(ccc4ccccc43)[nH]2)cc1
[1]
  AC50: 17.8 µM [falling, partial curve, poor fit]

## Cn1c(CCN2CCCCC2)nc2cc([N+](=O)[O-])ccc21
[1]
  AC50: 20 µM [falling, single point]

## CCS(=O)(=O)N1CCN(S(=O)(=O)c2ccc3c(c2)OCCO3)CC1
[1]
  AC50: 1 µM [falling, partial curve]

## CCCCC(=O)Nc1c(C)cc(C)cc1Cl
[1]
  AC50: 6.51 µM [rising, partial curve, poor fit]

## O=C(O)CSc1nnc(-c2ccncc2)n1Cc1ccccc1
[1]
  AC50: 32.6 µM [falling, single point]

## CC(C)(C)C(=O)N=C1SC2CS(=O)(=O)CC2N1c1ccc2c(c1)OCO2 (stereo not given)
[1]
  AC50: 6.51 µM [rising, partial curve, poor fit]

## O=C(CSc1nc2ccccc2s1)N/N=C/c1ccco1
[1]
  AC50: 5.8 µM [rising, partial curve, poor fit]

## CS(=O)(=O)NCCCCCCNS(C)(=O)=O
[1]
  AC50: 14.1 µM [falling, partial curve]

## Cc1cc2c(s1)c1c(C)nn(Cc3ccccc3F)c(=O)c1n2C
[1]
  AC50: 7.31 µM [falling, partial curve, poor fit]

## CCn1c2ccccc2c2nnc(SCC(=O)NC3CCS(=O)(=O)C3)nc21 (stereo not given)
[1]
  AC50: 32.6 µM [rising, partial curve, poor fit]

## N#C/C(=C\c1cccc(OC(=O)c2cccs2)c1)C(N)=O
[1]
  AC50: 2.31 µM [rising, partial curve, poor fit]

## COCCOC1CCN(C(=O)C2CCC(=O)N(CCc3ccc(OC)cc3)C2)CC1 (stereo not given)
[1]
  AC50: 6.31 µM [rising, single point]

## COC(=O)CSc1nc(C)cc(C)c1C#N
[2]
  AC50: 3.55 µM [rising, full curve, poor fit]

## CCOC(=O)c1cc(NC(=O)c2ccoc2C)cc(C(=O)OCC)c1
[1]
  AC50: 29.1 µM [falling, single point]

## O=C(/C=C/c1cccs1)Nc1ccc(N2CCOCC2)c(S(=O)(=O)Nc2ccccc2Cl)c1
[1]
  AC50: 10.3 µM [falling, partial curve, poor fit]

## CCOC(=O)c1ccccc1NC(=O)CSc1nc(=O)[nH]c2c1CCC2
[1]
  AC50: 3.55 µM [falling, partial curve, poor fit]

## Cc1c(/C=N/NC(=O)c2sc3ccccc3c2Cl)cnn1C
[1]
  AC50: 2.82 µM [falling, partial curve, poor fit]

## CN(C)c1nc(N)nc(CSc2nnnn2-c2ccc(C(=O)O)cc2)n1
[1]
  AC50: 16.4 µM [rising, partial curve, poor fit]

## COc1ccc(/C=C(/NC(=O)c2ccccc2)C(=O)N/N=C/c2cccs2)cc1OC
[1]
  AC50: 3.55 µM [rising, partial curve, poor fit]

## O=C(CSc1nc(O)cc(=O)n1-c1ccccc1)Nc1ccc(Br)cn1
[2]
  AC50: 14.1 µM [rising, partial curve, poor fit]

## O=C1C=C(O)c2cccc(O)c2C1=O
[1]
  AC50: 6.31 µM [falling, partial curve, poor fit]

## O=[N+]([O-])c1ccccc1NC(=S)N/N=C/c1ccc(O)c(O)c1
[1]
  AC50: 0.891 µM [falling, full curve, poor fit]

## NC(=O)COc1ccccc1/C=C1/SC(=O)N(CC(=O)N2CCc3ccccc3C2)C1=O
[1]
  AC50: 14.1 µM [falling, partial curve, poor fit]

## O=C(Nc1ccc(F)cc1)N1CCCN(c2nccc(C(F)(F)F)n2)CC1
[1]
  AC50: 28.2 µM [falling, single point]

## Nc1cc(Cl)nc(N/N=C/c2ccccc2[N+](=O)[O-])n1
[1]
  AC50: 11.2 µM [falling, partial curve, poor fit]

## COc1ccc(OCc2cc(C(=O)N3C[C@@H](C)O[C@@H](C)C3)no2)c(Cl)c1
[1]
  AC50: 12.6 µM [rising, partial curve, poor fit]

## Cc1cc(C)c(C)c(OC(=O)c2sc(Cl)nc2C)c1
[1]
  AC50: 23.1 µM [falling, single point]

## Cc1ccc(NC(=O)c2cc([N+](=O)[O-])ccc2NCc2cccnc2)cc1Cl
[1]
  AC50: 7.08 µM [falling, full curve, poor fit]

## CCCNC(=O)COC(=O)C1CCN(S(=O)(=O)c2ccc3c(c2)OCCO3)CC1
[1]
  AC50: 32.6 µM [rising, partial curve, poor fit]

## Cc1nnc2n1N=CC=C(c1ccccc1)S2
[1]
  AC50: 32.6 µM [falling, single point]

## CC(=O)c1ccc2c(c1)C1C=CCC1C(c1cc3c(cc1Br)OCO3)N2 (stereo not given)
[2]
  AC50: 23.1 µM [falling, single point]

## O=c1oc2ccccc2c(N2CCCC2)c1CN1CCCC1
[1]
  AC50: 1.46 µM [falling, partial curve, poor fit]

## CCc1cc2c(=O)n(Cc3ccco3)c(SCC(=O)N(C)C3CCS(=O)(=O)C3)nc2s1 (stereo not given)
[1]
  AC50: 5.62 µM [falling, partial curve]

## O=C(c1cccn2c(=O)c3cc(Cl)ccc3nc12)N1CCN(c2ccccc2F)CC1
[1]
  AC50: 3.55 µM [falling, partial curve, poor fit]

## CC1CCN(c2ccc(C(=O)O)cc2NS(=O)(=O)c2ccc(Br)cc2)CC1
[1]
  AC50: 25.9 µM [rising, single point]

## CCNc1nc(SCC(=O)Nc2ccc(Cl)c(Cl)c2)nc(N(C)C)n1
[1]
  AC50: 0.501 µM [rising, full curve, poor fit]

## CCCCOc1ccc(C(=O)N2CCCC2)cc1
[1]
  AC50: 3.66 µM [rising, full curve, poor fit]

## CC(C)C(NC(=O)C(c1ccccc1)c1ccccc1)c1nc2ccccc2[nH]1 (stereo not given)
[1]
  AC50: 18.4 µM [rising, partial curve, poor fit]

## COc1ccc(C)cc1Nc1n[n+](-c2ccccc2)c(-c2c(Cl)cccc2Cl)s1
[1]
  AC50: 17.8 µM [falling, single point]

## C/C(CC(=O)Nc1cc(C)ccn1)=N\NC(=O)c1ccc(C)cc1
[1]
  AC50: 7.94 µM [falling, partial curve, poor fit]

## Clc1ccc(CSc2nncn2-c2ccccn2)cc1
[1]
  AC50: 25.9 µM [rising, single point]

## CCc1ccc(NC(=O)N2CCN(c3ccc(F)cc3)CC2)cc1
[1]
  AC50: 0.708 µM [rising, full curve, poor fit]

## CCOc1ccccc1NC(=O)CCC(=O)Nc1ccccc1OCC
[1]
  AC50: 0.651 µM [falling, partial curve, poor fit]

## CS(=O)(=O)N(Cc1nc(-c2ccc(F)cc2)no1)c1ccccc1Cl
[1]
  AC50: 8.2 µM [falling, partial curve, poor fit]

## COc1ccccc1CCC(=O)Nc1ncc(C)s1
[1]
  AC50: 11.2 µM [falling, single point]

## COc1ccc(NC(=O)C/C(C)=N/NC(=O)C(=O)NC(C)C)c(OC)c1
[1]
  AC50: 2 µM [rising, full curve, poor fit]

## O=C(Nc1nc(-c2ccccc2)cs1)C1CCCCN1S(=O)(=O)c1ccccc1 (stereo not given)
[1]
  AC50: 0.82 µM [falling, full curve, poor fit]

## CN(C)S(=O)(=O)c1ccc(N2CCOCC2)c(C(=O)O)c1
[1]
  AC50: 3.66 µM [rising, single point]

## O=C(N/N=C/c1c[nH]c2ccccc12)c1ccc2c(c1)OCCO2
[1]
  AC50: 8.91 µM [falling, partial curve]

## COC(=O)c1ccc(OC(=O)/C=C/c2ccco2)cc1
[1]
  AC50: 11.2 µM [rising, partial curve, poor fit]

## O=C(NCC1CCCO1)C1CCCN(Cc2cnn(-c3ccccc3)c2-n2cccc2)C1 (stereo not given)
[1]
  AC50: 29.1 µM [rising, single point]

## CCOC(=O)/C(C#N)=C\c1c(OCC)n(CC)c2ccccc12
[2]
  AC50: 25.9 µM [rising, partial curve, poor fit]

## Cc1cccc(C(=O)Nc2nnc(Cc3ccccc3)s2)c1
[1]
  AC50: 35.5 µM [falling, partial curve, poor fit]

## Cc1cc(C)c(C#N)c(OCC(=O)c2ccccc2)n1
[1]
  AC50: 3.16 µM [rising, partial curve]

## CCOC(=O)CNC(=O)c1c(C)nn(-c2ccccc2)c1Cl
[1]
  AC50: 6.51 µM [rising, partial curve, poor fit]
